Results deposited as PubChem BioAssay AID1224828 (NIAID, 2016).
Purpose: 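Regulators linking TLR4 signalling to p65 nuclear translocation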 (primary screen). Cell system: mouse RAW264.7 G9 macrophage reporter cells (GFP-p65, Tnf promoter-mCherry). Reagents: siRNA pool against mouse genes, 100 nM. Timing: 2 days siRNA transfection, then 40 min LPS before fixation. Treatment: LPS (Salmonella minnesota R595) at 10 ng/ml. Detection: 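Imaged p65 nuclear translocation ratio, normalised to the plate median, converted to robust z-scores and averaged across two replicates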. Reading the numbers: p65 translocation robust z-score: higher = more nuclear NF-kappaB p65 after LPS than the plate median; nuclear/cytoplasmic p65 ratio: higher = more nuclear NF-kappaB p65. Rule for the call: 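Active if robust z is above 3.3 (negative regulators) or below -1.56, the Tlr4 control median (positive regulators); activity score 50 or more; control wells not called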. Calls: active = hit (p65 shift raised or lowered); inactive = no clear change.
Here is a random part of about 17,000 deposited reagents. Of all reagents, 762 (4.5%) are marked active. 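Active calls include both raised and lowered p65 entry, mostly lowered; wells with fewer than 50 cells lack a z-score.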 The raw values are shown without normalisation. A number with no mark means an inactive call. The numbers tell different reagents against one gene apart.

| target gene | reagent | p65 translocation robust z-score | nuclear/cytoplasmic p65 ratio, rep 1 | nuclear/cytoplasmic p65 ratio, rep 2 | low cell count flag |
| --- | --- | --- | --- | --- | --- |
| Or4k15 (olfactory receptor family 4 subfamily K member 15) | 1 | 0.46 | 1.59 | 1.32 | enough cells to score |
| Mdm4 (MDM4 regulator of p53) | 1 | -0.52 | 1.29 | 1.36 | enough cells to score |
| Serpina1d (serine (or cysteine) peptidase inhibitor, clade A, member 1D) | 1 | -0.48 | 1.34 | 1.63 | enough cells to score |
| Caskin1 (CASK interacting protein 1) | 1 | -1.1 | 1.47 | 1.56 | enough cells to score |
| Rnf182 (ring finger protein 182) | 1 | 0.33 | 1.67 | 1.8 | enough cells to score |
| Dpm2 (dolichyl-phosphate mannosyltransferase subunit 2, regulatory) | 1 | 7.08 (active) | 2.02 | 2.25 | enough cells to score |
| Rock1 (Rho-associated coiled-coil containing protein kinase 1) | 1 | -0.29 | 1.6 | 1.37 | enough cells to score |
| Grb10 (growth factor receptor bound protein 10) | 1 | -0.24 | 1.31 | 1.43 | enough cells to score |
| PLEKHK1 | 1 | -1.43 | 1.19 | 1.04 | enough cells to score |
| Adamts4 (ADAM metallopeptidase with thrombospondin type 1 motif 4) | 1 | -0.42 | 1.6 | 1.51 | enough cells to score |
| Rab30 (RAB30, member RAS oncogene family) | 1 | -0.63 | 1.44 | 0.987 | enough cells to score |
| Srsf7 (serine and arginine-rich splicing factor 7) | 1 | 0.19 | 1.52 | 1.64 | enough cells to score |
| Fam110b (family with sequence similarity 110, member B) | 1 | 0.3 | 1.41 | 1.48 | enough cells to score |
| Rasa1 (RAS p21 protein activator 1) | 1 | 0.2 | 1.57 | 1.52 | enough cells to score |
| Cuta (cutA divalent cation tolerance homolog) | 1 | -0.15 | 1.48 | 1.46 | enough cells to score |
| Tmod1 (tropomodulin 1) | 1 | – | 1.42 | 1.06 | fewer than 50 cells per well; well left out of scoring |
| Ferry3 (FERRY endosomal RAB5 effector complex subunit 3) | 1 | 0.05 | 1.57 | 1.56 | enough cells to score |
| Dcaf12l1 (DDB1 and CUL4 associated factor 12-like 1) | 1 | 0.24 | 1.45 | 1.27 | enough cells to score |
| B3galt5 | 1 | -1.59 (active) | 1.35 | 1.3 | enough cells to score |
| Czib (CXXC motif containing zinc binding protein) | 1 | 0.23 | 1.51 | 1.54 | enough cells to score |
| Slx4ip (SLX4 interacting protein) | 1 | 0.6 | 1.4 | 1.38 | enough cells to score |
| 5730493B19Rik (RIKEN cDNA 5730493B19 gene) | 1 | 1.33 | 1.47 | 1.7 | enough cells to score |
| Vmn1r87 (vomeronasal 1 receptor 87) | 1 | 0.05 | 1.55 | 1.56 | enough cells to score |
| Kazald1 (Kazal-type serine peptidase inhibitor domain 1) | 1 | -0.39 | 1.56 | 1.61 | enough cells to score |
| Rrs1 (ribosome biogenesis regulator 1) | 1 | -0.63 | 1.34 | 1.13 | enough cells to score |
| Mrpl34 (mitochondrial ribosomal protein L34) | 1 | -1.68 (active) | 1.53 | 1.32 | enough cells to score |
| Fem1c (fem 1 homolog c) | 1 | 2.16 | 1.86 | 1.75 | enough cells to score |
| Fem1c (fem 1 homolog c) | 2 | – | 1.31 | 1.3 | fewer than 50 cells per well; well left out of scoring |
| Vmn1r-ps8 (vomeronasal 1 receptor, pseudogene 8) | 1 | 2.61 | 1.69 | 1.55 | enough cells to score |
| Or5j1 (olfactory receptor family 5 subfamily J member 1) | 1 | 0.93 | 1.83 | 1.69 | enough cells to score |
| Cd163 (CD163 antigen) | 1 | -2.47 (active) | 1.15 | 1.07 | enough cells to score |
| Dazl (deleted in azoospermia-like) | 1 | 0.98 | 1.7 | 1.7 | enough cells to score |
| Exosc9 (exosome component 9) | 1 | 0.25 | 1.64 | 1.49 | enough cells to score |
| Calhm2 (calcium homeostasis modulator family member 2) | 1 | 1.14 | 1.33 | 1.84 | enough cells to score |
| Eda2r (ectodysplasin A2 receptor) | 1 | -0.13 | 1.51 | 1.47 | enough cells to score |
| Or5p6 (olfactory receptor family 5 subfamily P member 6) | 1 | -1.59 (active) | 1.29 | 1.53 | enough cells to score |
| Efna1 (ephrin A1) | 1 | 0.13 | 1.49 | 1.38 | enough cells to score |
| A830039N20Rik (RIKEN cDNA A830039N20 gene) | 1 | 0.73 | 1.52 | 1.58 | enough cells to score |
| Or2m12 (olfactory receptor family 2 subfamily M member 12) | 1 | 3 | 2.13 | 1.75 | enough cells to score |
| Slc18a2 | 1 | 0.26 | 1.36 | 1.35 | enough cells to score |
| 4921504E06Rik (RIKEN cDNA 4921504E06 gene) | 1 | 0.07 | 1.88 | 1.27 | enough cells to score |
| Ncaph2 (non-SMC condensin II complex, subunit H2) | 1 | -0.59 | 1.4 | 1.78 | enough cells to score |
| Notch2 (notch 2) | 1 | 1.46 | 1.69 | 1.56 | enough cells to score |
| Emilin1 (elastin microfibril interfacer 1) | 1 | -0.05 | 1.33 | 1.36 | enough cells to score |
| Cox5b (cytochrome c oxidase subunit 5B) | 1 | 0.61 | 1.71 | 1.84 | enough cells to score |
| Zfpm1 (zinc finger protein, multitype 1) | 1 | -0.94 | 1.29 | 1.14 | enough cells to score |
| Atf7ip (activating transcription factor 7 interacting protein) | 1 | 0.36 | 1.67 | 1.66 | enough cells to score |
| Atf7ip (activating transcription factor 7 interacting protein) | 2 | -0.94 | 1.13 | 1.34 | enough cells to score |
| Lsamp (limbic system-associated membrane protein) | 1 | 1 | 1.84 | 1.72 | enough cells to score |
| Rps6 (ribosomal protein S6) | 1 | – | 1.47 | 1.13 | fewer than 50 cells per well; well left out of scoring |
| Rpl5 (ribosomal protein L5) | 1 | -1.1 | 1.37 | 1.34 | enough cells to score |
| Ttbk2 (tau tubulin kinase 2) | 1 | – | 1.53 | 1.41 | fewer than 50 cells per well; well left out of scoring |
| Ppp2r1a (protein phosphatase 2, regulatory subunit A, alpha) | 1 | 0.05 | 1.57 | 1.36 | enough cells to score |
| N4bp2l2 (NEDD4 binding protein 2-like 2) | 1 | 2.16 | 1.91 | 2.2 | enough cells to score |
| Xiap (X-linked inhibitor of apoptosis) | 1 | -1.05 | 1.52 | 1.4 | enough cells to score |
| Fcmr (Fc fragment of IgM receptor) | 1 | -0.68 | 1.53 | 1.49 | enough cells to score |
| Snapc3 (small nuclear RNA activating complex, polypeptide 3) | 1 | -0.52 | 1.5 | 1.45 | enough cells to score |
| Alx4 (aristaless-like homeobox 4) | 1 | -0.48 | 1.61 | 1.48 | enough cells to score |
| 4930579C12Rik (RIKEN cDNA 4930579C12 gene) | 1 | -0.16 | 1.16 | 1.37 | enough cells to score |

Laid out differently: results already given
Or4k15 (olfactory receptor family 4 subfamily K member 15) → p65 translocation robust z-score = 0.46; nuclear/cytoplasmic p65 ratio, rep 1 = 1.59; nuclear/cytoplasmic p65 ratio, rep 2 = 1.32; low cell count flag = enough cells to score
Mdm4 (MDM4 regulator of p53) → p65 translocation robust z-score = -0.52; nuclear/cytoplasmic p65 ratio, rep 1 = 1.29; nuclear/cytoplasmic p65 ratio, rep 2 = 1.36; low cell count flag = enough cells to score
Serpina1d (serine (or cysteine) peptidase inhibitor, clade A, member 1D) → p65 translocation robust z-score = -0.48; nuclear/cytoplasmic p65 ratio, rep 1 = 1.34; nuclear/cytoplasmic p65 ratio, rep 2 = 1.63; low cell count flag = enough cells to score
